# Experimental data as given in the supplement of paper PMC12462457.
# Counter-ions that a name gives are not always drawn. ± gives the standard deviation of the averaged measurements. Some of the results follow. Repeats in this data set agree poorly, so a single value says little.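 Imaging of DAPI-stained nuclei was used to count cells; those without phalloidin-stained cytoplasm were treated as dead and excluded. Every well's count was divided by the median of same-plate vehicle wells, then averaged across two replicate plates.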
# System: OVCAR8
# Assay: cell count relative to DMSO vehicle (fold change); higher = more surviving senescent cells (less killing)
# Conditions: senescence inducer: cisplatin 10 µM 48 h, then 6 d recovery (CP senescent), exposure time 24 h
structure (smiles),measurement,setting,value
COc1ccc(-c2oc3c(CC=C(C)C)c(O)cc(O)c3c(=O)c2O)cc1 [Icaritin],cell count,compound dose 1 µM,1.06 ± 0.093
same,cell count,compound dose 5 µM,1.14 ± 0.17
CCOc1nc2cccc(C(=O)OC(C)OC(=O)OC3CCCCC3)c2n1Cc1ccc(-c2ccccc2-c2nn[nH]n2)cc1 (stereo not given) [Candesartan Cilexetil],cell count,compound dose 1 µM,0.663 ± 0.16
same,cell count,compound dose 5 µM,0.0715 ± 0.067
CCCNS(=O)(=O)Nc1ncnc(OCCOc2ncc(Br)cn2)c1-c1ccc(Br)cc1 [Macitentan],cell count,compound dose 1 µM,0.974 ± 0.029
same,cell count,compound dose 5 µM,0.606 ± 0.2
COC(=O)c1c2c(c3ccccc3c1O)OC(C)(C)C=C2 [Mollugin],cell count,compound dose 1 µM,0.952 ± 0.2
same,cell count,compound dose 5 µM,0.196 ± 0.12
CC1(C)CCN(CCOc2ccc3[nH]ccc3c2)c2ccc(-c3cccnc3)cc21,cell count,compound dose 1 µM,1.033 ± 0.0085
same,cell count,compound dose 5 µM,0.745 ± 0.2
COc1ccc(/C=C/C(=O)C2(C(=O)/C=C/c3ccc(OC)c(OC)c3)CCCCC2)cc1OC,cell count,compound dose 1 µM,1.09 ± 0.24
same,cell count,compound dose 5 µM,1.07 ± 0.071
Nc1nc(Nc2ccc(S(N)(=O)=O)cc2)nn1C(=O)c1c(F)cccc1F,cell count,compound dose 1 µM,1.11 ± 0.74
same,cell count,compound dose 5 µM,1.25 ± 0.21
Cc1[nH]c(/C=C2\C(=O)Nc3ccc(S(=O)(=O)Cc4c(Cl)cccc4Cl)cc32)c(C)c1C(=O)N1CCC[C@@H]1CN1CCCC1,cell count,compound dose 1 µM,0.836 ± 0.066
same,cell count,compound dose 5 µM,0.335 ± 0.011
CC(C)[C@H](NC(=O)c1ccc2ccccc2n1)C(=O)N[C@@H](CC(=O)O)C(=O)COc1c(F)cccc1F,cell count,compound dose 1 µM,0.748 ± 0.14
same,cell count,compound dose 5 µM,0.858 ± 0.18
O=C(O)c1cc(O)c(O)c(O)c1,cell count,compound dose 1 µM,0.729 ± 0.29
same,cell count,compound dose 5 µM,0.887 ± 0.39
COc1cc(C(=O)O)cc(O)c1O [3-O-Methylgallic acid],cell count,compound dose 1 µM,1.02 ± 0.015
same,cell count,compound dose 5 µM,0.779 ± 0.11
Cc1c(C)c2c(c(C)c1O)CC[C@@](C)(CCC[C@H](C)CCC[C@H](C)CCCC(C)C)O2 [α-Vitamin E],cell count,compound dose 1 µM,0.931 ± 0.059
same,cell count,compound dose 5 µM,1.03 ± 0.084
Cc1cc(CS(=O)(=O)c2ccccc2)cc(OCc2ccc(CN3CCC[C@@H]3CO)cc2)c1,cell count,compound dose 1 µM,0.884 ± 0.0092
same,cell count,compound dose 5 µM,1.16 ± 0.07
Cc1cc(CS(=O)(=O)c2ccccc2)cc(OCc2ccc(CN3CCC[C@@H]3CO)cc2)c1 [PF-543 (Citrate)],cell count,compound dose 1 µM,1.14 ± 0.23
same,cell count,compound dose 5 µM,0.859 ± 0.026
NC(=O)NO,cell count,compound dose 1 µM,1.2 ± 0.13
same,cell count,compound dose 5 µM,0.991 ± 0.066
C[C@@H]1CC[C@@]2(OC1)O[C@H]1C[C@H]3[C@@H]4CC=C5C[C@@H](O[C@@H]6O[C@H](CO)[C@@H](O)[C@H](O[C@@H]7O[C@H](CO)[C@@H](O)[C@H](O)[C@H]7O)[C@H]6O[C@@H]6O[C@@H](C)[C@H](O)[C@@H](O)[C@H]6O)CC[C@]5(C)[C@H]4CC[C@]3(C)[C@H]1[C@@H]2C [Gracillin],cell count,compound dose 1 µM,1.33 ± 0.16
same,cell count,compound dose 5 µM,1.02 ± 0.16
CC(C)(C)c1cc(NC(=O)Nc2ccc(-c3cccc4c(N)nccc34)cc2)no1,cell count,compound dose 1 µM,0.823 ± 0.076
same,cell count,compound dose 5 µM,0.635 ± 0.17
COc1c(OC)c2occc2c2oc(=O)ccc12,cell count,compound dose 1 µM,1.13 ± 0.12
same,cell count,compound dose 5 µM,0.964 ± 0.091
Cc1ccccc1C(=O)N1CCc2cc(-c3nc(NC(=O)Cc4ccc5c(c4)OCO5)sc3C)ccc21,cell count,compound dose 1 µM,1.08 ± 0.12
same,cell count,compound dose 5 µM,0.979 ± 0.15
CCCCC[C@H](CC(=O)NO)C(=O)N[C@H](C(=O)N1CCC[C@H]1CO)C(C)C [Actinonin],cell count,compound dose 1 µM,1.43 ± 0.092
same,cell count,compound dose 5 µM,1.17 ± 0.17
Oc1ccc(C2=Cc3ccc(O)cc3OC2)cc1 [Phenoxodiol],cell count,compound dose 1 µM,1.14 ± 0.092
same,cell count,compound dose 5 µM,0.924 ± 0.31
COc1ccc(COc2cc3oc(=O)c4cc(C(C)O)ccc4c3cc2OC)cc1 (stereo not given) [Palomid 529 (P529)],cell count,compound dose 1 µM,0.883 ± 0.12
same,cell count,compound dose 5 µM,0.902 ± 0.22
CC(C)(C)NC(=O)[C@@H]1CN(Cc2cccnc2)CCN1C[C@@H](O)C[C@@H](Cc1ccccc1)C(=O)N[C@H]1c2ccccc2C[C@H]1O [Indinavir (sulfate)],cell count,compound dose 1 µM,0.747 ± 0.096
same,cell count,compound dose 5 µM,0.969 ± 0.052
COC(=O)Nc1nc2cc(C(=O)c3ccc(F)cc3)ccc2[nH]1 [Flubendazole],cell count,compound dose 1 µM,1.08 ± 0.15
same,cell count,compound dose 5 µM,0.797 ± 0.076
CC[C@@H]1C(=O)N(C)c2cnc(Nc3ccc(C(=O)NC4CCN(C)CC4)cc3OC)nc2N1C1CCCC1,cell count,compound dose 1 µM,0.682 ± 0.3
same,cell count,compound dose 5 µM,0.68 ± 0.15
CCCCC[C@H](O)CC(=O)CCc1ccc(O)c(OC)c1 [[6]-Gingerol],cell count,compound dose 1 µM,1.3 ± 0.055
same,cell count,compound dose 5 µM,1.04 ± 0.084
CCCCCCCC/C=C\CCCCCCCC(=O)O [Oleic acid],cell count,compound dose 1 µM,1.05 ± 0.057
same,cell count,compound dose 5 µM,0.94 ± 0.057
Fc1ccc(CNc2ncnc3ccc(F)cc23)cc1 [Spautin-1],cell count,compound dose 1 µM,1.06 ± 0.081
same,cell count,compound dose 5 µM,0.835 ± 0.18
O=C(NC1CCNCC1)c1n[nH]cc1NC(=O)c1c(Cl)cccc1Cl,cell count,compound dose 1 µM,0.979 ± 0.016
same,cell count,compound dose 5 µM,0.74 ± 0.2
CC(=O)Cc1cc(=O)c2c(C)cc(O)c([C@@H]3O[C@H](CO)[C@@H](O)[C@H](O)[C@H]3O)c2o1 [Aloesin],cell count,compound dose 1 µM,1.383 ± 0.0064
same,cell count,compound dose 5 µM,1.39 ± 0.2
CC[C@@H](N)CNc1ccnc(-c2cc(-c3cnn(C)c3)ccc2O)n1,cell count,compound dose 1 µM,1.15 ± 0.042
same,cell count,compound dose 5 µM,0.544 ± 0.24
O=C(O)/C=C/c1ccc(-c2ccc(O)c(C34CC5CC(CC(C5)C3)C4)c2)cc1 [Adarotene],cell count,compound dose 1 µM,1.02 ± 0.042
same,cell count,compound dose 5 µM,0.8815 ± 0.0021
Oc1cccc(O)c1O [Pyrogallol],cell count,compound dose 1 µM,1.06 ± 0.0071
same,cell count,compound dose 5 µM,1.11 ± 0.22
COC1=CC(=O)C[C@@H](C)[C@]12Oc1c(Cl)c(OC)cc(OC)c1C2=O [Griseofulvin],cell count,compound dose 1 µM,1.14 ± 0.042
same,cell count,compound dose 5 µM,0.895 ± 0.17
Cn1cc(-c2cnc(N)c3c(-c4ccc5c(c4)CCN5C(=O)Cc4ccccc4)csc23)cn1,cell count,compound dose 1 µM,1.02 ± 0.034
same,cell count,compound dose 5 µM,0.779 ± 0.081
CC(C)(C)c1cc(/C=C(\C#N)C(N)=S)cc(C(C)(C)C)c1O [Tyrphostin AG 879],cell count,compound dose 1 µM,1.208 ± 0.012
same,cell count,compound dose 5 µM,0.826 ± 0.12
Fc1ccc(-n2cc(CCCCN3CCC4(CC3)OCc3ccccc34)c3ccccc32)cc1 [Siramesine (hydrochloride)],cell count,compound dose 1 µM,1.27 ± 0.076
same,cell count,compound dose 5 µM,0.773 ± 0.36
COc1cccc(OCCCN)c1-c1cc(Nc2cnc(C#N)cn2)n[nH]1 [Prexasertib],cell count,compound dose 1 µM,0.384 ± 0.072
same,cell count,compound dose 5 µM,0.276 ± 0.056
N=C1S/C(=C\c2ccc(-c3ccc4c(c3)C(=O)NC4=O)o2)C(=O)N1c1ccc(Br)cc1 [Bioymifi],cell count,compound dose 1 µM,1.32 ± 0.17
same,cell count,compound dose 5 µM,1.24 ± 0.019
CC(=O)Nc1ccc(C2=NNC(=O)C[C@H]2C)cc1,cell count,compound dose 1 µM,1.02 ± 0.079
same,cell count,compound dose 5 µM,0.798 ± 0.037
O=c1c(N=Nc2nccs2)c(-c2ccccc2)[nH]n1-c1nc(-c2ccccc2)cs1,cell count,compound dose 1 µM,1.19 ± 0.18
same,cell count,compound dose 5 µM,1.22 ± 0.4
COc1cc(C[C@H]2C(=O)OC[C@@H]2Cc2ccc(OC)c(OC)c2)ccc1O [Arctigenin],cell count,compound dose 1 µM,1.05 ± 0.12
same,cell count,compound dose 5 µM,1.16 ± 0.19
CO[C@H]1CC[C@H](N2C(=O)CNc3ncc(-c4ccc(C(C)(C)O)nc4)nc32)CC1,cell count,compound dose 1 µM,1.04 ± 0.043
same,cell count,compound dose 5 µM,0.867 ± 0.17
COc1ccc(NS(=O)(=O)c2c(F)c(F)c(F)c(F)c2F)cc1F [Batabulin],cell count,compound dose 1 µM,0.684 ± 0.19
same,cell count,compound dose 5 µM,0.296 ± 0.1
COc1ccc(NS(=O)(=O)c2c(F)c(F)c(F)c(F)c2F)cc1F [Batabulin (sodium)],cell count,compound dose 1 µM,0.65 ± 0.11
same,cell count,compound dose 5 µM,0.515 ± 0.1

# In a second layout: entries from further up.
structure (smiles)	measurement	setting	value
Cc1cc(CS(=O)(=O)c2ccccc2)cc(OCc2ccc(CN3CCC[C@@H]3CO)cc2)c1 [PF-543 (Citrate)]	cell count	compound dose 5 µM	0.859 ± 0.026
NC(=O)NO	cell count	compound dose 1 µM	1.2 ± 0.13
same	cell count	compound dose 5 µM	0.991 ± 0.066

# Quoted at random: 3 entries already listed.
structure (smiles),measurement,setting,value
CC(C)(C)c1cc(/C=C(\C#N)C(N)=S)cc(C(C)(C)C)c1O [Tyrphostin AG 879],cell count,compound dose 5 µM,0.826 ± 0.12
C[C@@H]1CC[C@@]2(OC1)O[C@H]1C[C@H]3[C@@H]4CC=C5C[C@@H](O[C@@H]6O[C@H](CO)[C@@H](O)[C@H](O[C@@H]7O[C@H](CO)[C@@H](O)[C@H](O)[C@H]7O)[C@H]6O[C@@H]6O[C@@H](C)[C@H](O)[C@@H](O)[C@H]6O)CC[C@]5(C)[C@H]4CC[C@]3(C)[C@H]1[C@@H]2C [Gracillin],cell count,compound dose 5 µM,1.02 ± 0.16
COC1=CC(=O)C[C@@H](C)[C@]12Oc1c(Cl)c(OC)cc(OC)c1C2=O [Griseofulvin],cell count,compound dose 1 µM,1.14 ± 0.042
